The values below come from PubChem BioAssay AID2685 (National Center for Advancing Translational Sciences (NCATS), 2010).

The experiment can be described thus: qHTS Assay for Lipid Storage Modulators in Drosophila S3 Cells.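 On cell number change: cells counted by Cell Tracker Red CMTPX staining in the red channel.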 Particulars: BODIPY lipid droplet fluorescence, 18-24 h; for cell number change: measured here: cell count max response, cells fed with added oleic acid. The method, boiled down:
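Drosophila S3 cells loaded with oleic acid (400 uM, as added) and compounds at several concentrations; lipid droplets imaged by 488-nm laser-scanning cytometry, 500–530 nm intensity and object ratio to cell channel. Percent activity normalized to 20 uM Triacsin C.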

Setting [1] is: measured here: cell number channel AC50, cells fed with added oleic acid.
The mark [2] stands for this setting: measured here: lipid fluorescence (Fed channel) AC50, cells fed with added oleic acid.

SMILES strings stand for the structures. The list shows a part of the results. Further columns of the screen follow, without active or inactive calls. Compounds called inactive in the main read-out are mostly missing here. Potencies come from curve fits of mixed quality, noted in brackets.

In general, AC50 refers to the concentration at which the activity in the assay is half-maximal. Read a low AC50 as activity at low concentration. On to `NS(=O)(=O)c1ccc(CCNC(=O)c2cc3ccccc3oc2=O)cc1`, for which the cell number change came out at 34.3%. Besides, the half-maximal activity concentration (AC50) under setting [1] was 0.146 µM [rising, full curve, poor fit]. Under setting [2], the AC50 is 29.1 µM [falling, single point].

Turning to `CCN(C(=O)CSc1nnc(-c2cccs2)o1)C1CCS(=O)(=O)C1` (stereo unspecified), the AC50 under setting [2] is 0.116 µM [falling, single point].

With `CCOc1cc(NC(=S)NCCCN2CCOCC2)c(OCC)cc1NC(=O)C1CC1`, the cell number change came out at 1.35%. For the same molecule, under setting [2], the AC50 is 0.58 µM [rising, full curve, poor fit].

Turning to `Cc1c(Cl)cccc1NC(=S)N(Cc1cccnc1)Cc1ccccc1Cl`, the cell number change was 34.2%.

As to `O=c1[nH]c(CN2CCOCC2)nc2cc(Cl)ccc12`, the cell number change was -23.5%. Moreover, the AC50 under setting [1] was 0.0058 µM [falling, full curve, poor fit]. The AC50 under setting [2] is 0.146 µM [falling, full curve].

Turning to `COc1ccc(/C=N/S(=O)(=O)c2cccs2)cc1`, the cell number change was -30.8%. Moreover, the AC50 under setting [1] was 0.206 µM [falling, full curve, poor fit]. Also, the AC50 under setting [2] was 5.17 µM [falling, full curve].

Take `Cc1ccc(S(=O)(=O)N(C)C)cc1NC(=O)C(C)OC(=O)/C=C/c1cccs1` (stereo unspecified): the cell number change is -23.2%. Also, the AC50 under setting [2] is 14.6 µM [falling, partial curve, poor fit].

In the case of `NS(=O)(=O)c1ccc(NC(=O)COC(=O)CSc2n[nH]c(-c3ccccc3)n2)cc1`, the cell number change is 0.232%. Moreover, the AC50 under setting [2] is 4.11 µM [rising, single point].

For `CC1(C)N=C(c2ccccc2)C(=O)N1`, the cell number change was -69%. For the same molecule, the AC50 under setting [1] was 29.1 µM [falling, single point].

Turning to `Cc1ccc(C(NC(=O)C(C)C)c2cc([N+](=O)[O-])c3cccnc3c2O)cc1` (stereo unspecified), the cell number change is 1.44%. Besides, the AC50 under setting [2] is 0.58 µM [falling, full curve].

As to `CCCCN(C)C(=O)C1CCN(Cc2cccnc2)CC1`, the cell number change was -17.2%.

With `Cc1ccsc1/C=N/NC(=O)C(O)c1ccccc1` (stereo unspecified), the cell number change was -2.12%. In addition, the half-maximal activity concentration (AC50) under setting [2] was 4.61 µM [rising, single point].

Consider `Cn1c(SCC(=O)Nc2cccc(S(=O)(=O)N3CCOCC3)c2)nnc1-c1ccncc1`, for which the cell number change is 22.6%.

As to `COc1ccc(N=c2oc3cc(O)ccc3cc2C(=O)NCC2CCCO2)c(OC)c1` (stereo unspecified), the cell number change stood at 8.67%. Further, the AC50 under setting [2] is 0.092 µM [rising, full curve, poor fit].

Turning to `Cc1cccc(-c2noc(CNC(=O)c3ccoc3C)n2)c1`, the cell number change stood at 25.4%. The AC50 under setting [2] is 0.291 µM [falling, partial curve, poor fit].

On to `CCc1ccc(N(CC(=O)NCc2ccc(OC)cc2)C(=O)CCC(=O)Nc2ccccn2)cc1`, for which the cell number change is -1.67%.

For `Cc1cc(C)nc(SCc2nnc(SCc3ccccc3Cl)o2)n1`, the cell number change was determined as 105%. Further, the AC50 under setting [1] is 10.3 µM [rising, partial curve]. Under setting [2], the AC50 is 6.51 µM [rising, single point].

Consider `CN1CCN(C(=O)c2ccccc2NC(=O)Cc2ccccc2)CC1`, for which the cell number change turned out to be 30.6%. Besides, the concentration at half-maximal activity (AC50) under setting [1] was 13 µM [rising, single point].

`O=C(NC1CCCCC1)N1CCN(c2ccc(Cl)cc2)CC1`: the cell number change is -31.7%. Moreover, the AC50 under setting [1] was 20.6 µM [falling, single point]. Besides, under setting [2], the half-maximal activity concentration (AC50) was 29.1 µM [falling, single point].

As to `O=C(CCCCCNC(=O)c1ccccc1Br)N=Nc1c(O)[nH]c2ccccc12`, the cell number change is -5.1%. Also, the AC50 under setting [1] is 0.82 µM [falling, full curve, poor fit].

For `CCn1cc(C(=O)N2CCc3ccccc32)c(=O)c2cc(S(=O)(=O)N(C)C3CCCCC3)ccc21`, the cell number change turned out to be 14.9%. Also, the concentration at half-maximal activity (AC50) under setting [2] was 2.31 µM [rising, full curve, poor fit].

As to `CCN1CCN(S(=O)(=O)c2c(C)cc(C)cc2C)CC1`, the cell number change is -25.2%. The AC50 under setting [2] was 29.1 µM [rising, single point].

On to `Cn1c(=O)c2c(nc(NCCOc3ccc(C(C)(C)C)cc3)n2C)n(C)c1=O`, for which the cell number change was -15.1%. Also, under setting [2], the AC50 is 0.326 µM [falling, full curve, poor fit].

On to `O=C(CSc1nnc(NC(=O)C2CC2)s1)Nc1ccccc1`, for which the cell number change turned out to be 33.3%. Besides, under setting [1], the AC50 was 23.1 µM [rising, partial curve].

For `CCOC(=O)C(C)CC(C)C(=O)N1CCOCCOCCN(C(=O)C(C)CC(C)C(=O)OCC)CCOCC1` (stereo unspecified), the cell number change is -14%. The concentration at half-maximal activity (AC50) under setting [2] was 29.1 µM [falling, single point].

Take `O=C(COc1ccc(S(=O)(=O)N2CCOCC2)cc1)NC1CCCCC1`: the cell number change was -47.8%. The concentration at half-maximal activity (AC50) under setting [1] is 29.1 µM [falling, single point].

Turning to `Cc1snc(SCC(=O)N/N=C(\N)COc2ccc(F)cc2)c1C#N`, the cell number change is -18.9%.

Take `CCOC(=O)c1cc(NC(=O)CC(C)(C)CC(=O)O)ccc1N1CCCCC1`: the cell number change is -43.6%. Moreover, the half-maximal activity concentration (AC50) under setting [1] was 18.4 µM [falling, single point]. The AC50 under setting [2] was 29.1 µM [falling, single point].

Turning to `Cc1c(Cl)c([N+](=O)[O-])nn1CCCC(=O)Nc1cccc(O)c1`, the AC50 by setting is: under setting [1], 6.51 µM [rising, single point]; under setting [2], 1.84 µM [rising, partial curve].

As to `CCOC(=O)/C=C1\CC(=O)Nc2cc(C)c(C)cc2N1`, the cell number change came to 4.62%. Besides, the AC50 under setting [2] was 5.8 µM [rising, full curve, poor fit].

As to `Cc1ccc(OCC(=O)Nc2ccccc2C(=O)N2CCCC2)cc1`, the cell number change turned out to be 11%. The AC50 under setting [2] was 29.1 µM [rising, single point].

On to `COC(=O)CSc1nnc(-c2cccnc2)n1-c1cccc(OC)c1`, for which the cell number change stood at 64.8%. Besides, the concentration at half-maximal activity (AC50) under setting [1] was 18.4 µM [rising, single point].

In the case of `N#CC1(NC(=O)COc2cc(F)ccc2[N+](=O)[O-])CCCCC1`, under setting [2], the AC50 was 0.231 µM [falling, full curve].

Take `COc1cccc2c(C)nc(Nc3nc(CSc4nnc(C)s4)cc(=O)[nH]3)nc12`: the AC50 under setting [2] was 0.651 µM [rising, full curve].

Turning to `CCN(CC)CCNC(=O)Cn1cnc2sc(C)c(S(=O)(=O)N3CC(C)CC(C)C3)c2c1=O` (stereo unspecified), the cell number change was 12.6%.

Take `O=C(c1cc(-c2ccncc2)nc2ccc(Br)cc12)N1CCN(c2ccccn2)CC1`: the cell number change was -6.39%. For the same molecule, the AC50 under setting [2] is 2.91 µM [rising, partial curve].

Consider `COc1ccc(N2CC(C(=O)N/N=C/c3cc([N+](=O)[O-])ccc3O)CC2=O)cc1` (stereo unspecified), for which the cell number change was -14.7%. Besides, under setting [2], the AC50 is 29.1 µM [falling, single point].

For `O=C(NCc1ccc2c(c1)OCO2)c1c[nH]c2ccc(S(=O)(=O)N3CCOCC3)cc2c1=O`, the cell number change is -10.8%. Further, the AC50 under setting [2] is 0.461 µM [falling, partial curve, poor fit].

`CC1CCC2(CC1)NC(=O)N(CC(=O)NC(=O)NC1CCCC1)C2=O` (stereo unspecified): the cell number change is 3.8%.

Take `CN1CCN(c2ccc(Cl)cc2NC(=O)c2ccc(S(=O)(=O)N(C)C)cc2)CC1`: the cell number change was -20.6%. The concentration at half-maximal activity (AC50) under setting [2] was 29.1 µM [falling, single point].

Regarding `CCN(CC)S(=O)(=O)c1ccc(N2CCCC2)c(NC(=O)c2ccncc2)c1`, the cell number change turned out to be 30.5%.

As to `O=C(CSc1nc(-c2ccco2)cc(C(F)(F)F)n1)Nc1ccc(C(=O)N2CCOCC2)cc1`, the cell number change was -58.3%. For the same molecule, the half-maximal activity concentration (AC50) under setting [1] was 18.4 µM [falling, partial curve]. Further, under setting [2], the AC50 was 10.3 µM [falling, partial curve].

Regarding `N#C/C(=C\c1c(N2CCC(C(N)=O)CC2)nc2ccccn2c1=O)S(=O)(=O)c1ccccc1`, the cell number change came out at 36.1%. In addition, the half-maximal activity concentration (AC50) under setting [1] was 3.66 µM [rising, full curve, poor fit].

Regarding `CCN(CC(=O)NCc1cccs1)C(=O)COc1ccc(C(N)=O)cc1`, the cell number change stood at 5.61%.

For `CCCCCOc1ccc(C(=O)CCC(=O)Nc2ccc(NC(C)=O)cc2)cc1`, the cell number change was -26.1%. Moreover, the half-maximal activity concentration (AC50) under setting [2] is 11.6 µM [rising, partial curve].

Consider `O=C(c1cccc(N2C(=O)C3C4C=CC(C4)C3C2=O)c1)N1CCN(c2ccccc2F)CC1` (stereo unspecified), for which the cell number change was -2.12%. Also, under setting [2], the AC50 was 4.61 µM [rising, single point].

`COc1cc(/C=C2\SC(=S)N(NC(=O)c3ccncc3)C2=O)ccc1O`: the cell number change was -99.8%. For the same molecule, the AC50 under setting [1] was 29.1 µM [falling, single point]. Moreover, under setting [2], the AC50 is 20.6 µM [falling, partial curve].

In the case of `COc1ccccc1NC(=O)c1ccc(COc2ccccc2Br)o1`, the cell number change was -22.7%. The AC50 under setting [2] was 9.2 µM [falling, partial curve].

For the molecule `CCN1CCN(c2ccc(S(=O)(=O)N3CCCCC3)cc2NC(=O)c2cccc(NC(C)=O)c2)CC1`, the cell number change was found to be 70%. In addition, the AC50 under setting [1] was 11.6 µM [rising, partial curve].

Regarding `CCN(CC)c1ccc(C(=O)N/N=C/c2ccc(OC)cc2OC)cc1`, the AC50 runs as follows: under setting [1], 0.231 µM [rising, full curve, poor fit]; under setting [2], 0.291 µM [rising, partial curve, poor fit].

`Cc1nc2ccccc2n1CC(=O)NC(C)C1CC2CCC1C2` (stereo unspecified): the cell number change is -10.8%. Besides, the AC50 under setting [1] was 1.16 µM [falling, partial curve, poor fit].

For the molecule `CN1CCN(c2ccc(C(=O)NC3CCCCC3)cc2[N+](=O)[O-])CC1`, the cell number change was found to be 5.06%. In addition, the AC50 under setting [2] was 3.66 µM [falling, single point].

On to `COc1cccc(CNC(=O)CSc2nc3c(oc4ccccc43)c(=O)n2CC2CCCO2)c1` (stereo unspecified), for which the cell number change was -6.94%.

Turning to `O=C(CSc1nnc(CNC(=O)c2ccc(F)cc2)o1)Nc1ccc2c(c1)OCO2`, the cell number change is -28.6%. Under setting [2], the AC50 is 29.1 µM [falling, single point].

`CCCn1c(CNc2ccc(Br)cc2)nc2ccccc21`: the cell number change is -44.5%. Further, under setting [1], the AC50 is 29.1 µM [falling, single point]. Under setting [2], the AC50 is 6.51 µM [falling, single point].

Take `C#CCOCCOCCOCCNc1nc(N2CCN(C(=O)[C@H](Cc3cc4ccccc4[nH]3)n3cc([C@@H](N)C(C)CC)nn3)CC2)nc(N2CCN(C(=O)[C@H](Cc3cc4ccccc4[nH]3)n3cc([C@@H](N)CC(C)C)nn3)CC2)n1` (stereo partly specified): the cell number change is -42.2%. The AC50 under setting [1] was 29.1 µM [falling, single point]. Besides, the AC50 under setting [2] was 25.9 µM [falling, partial curve, poor fit].

In the case of `Cc1cc(C(=O)Nc2ccc(C#N)cc2)on1`, the cell number change is 8.26%. For the same molecule, the AC50 under setting [2] was 29.1 µM [rising, single point].
